PubChem BioAssay AID1159584 – Peter MacCallum Cancer Centre, 2016
The whole screen tested about 18,000 reagents; this is an unselected part. Not all columns of the deposit are shown. Not stated in the record: the amount of reagent, the time to read-out.

- Test: 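Knock-downs that harm CDH1-null cells more than parental MCF10A cells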 (primary screen)
- Cell system: human MCF10A breast epithelial cells, parental and CDH1-null
- Knock-down reagent: siRNA against human genes
- Detection: 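Cell viability by CellTiter-Glo ATP luminescence, each line scaled to the mean of mock wells across plates, then CDH1-null over parental ratio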
- Reading the numbers: CDH1-null / parental viability ratio: higher = CDH1-null cells survive relatively better than parental; CDH1-null viability vs mock: higher = more viable CDH1-null cells
- Units: CDH1-null viability vs mock in fraction of mock

Against C1QTNF7 [SID135623187] the deposit lists CDH1-null / parental viability ratio 1.02; CDH1-null viability vs mock 0.46.
Depletion of KEL [SID134311330] resulted in: CDH1-null / parental viability ratio 1.12; CDH1-null viability vs mock 0.86.
For RGL3 [SID152147440] the deposit lists CDH1-null / parental viability ratio 0.96; CDH1-null viability vs mock 0.45.
With knock-down of CDH16 [SID134316145], the screen gave CDH1-null / parental viability ratio 0.86; CDH1-null viability vs mock 0.57.
For ATL2 [SID134318232], the values are CDH1-null / parental viability ratio 1.05; CDH1-null viability vs mock 1.15.
AGTR2 [SID152148740] scored CDH1-null / parental viability ratio 1.48; CDH1-null viability vs mock 0.92.
ETNPPL [SID134313554] gave CDH1-null / parental viability ratio 1.02; CDH1-null viability vs mock 0.96.
With knock-down of GTSE1 [SID152155017] the results were CDH1-null / parental viability ratio 0.81; CDH1-null viability vs mock 0.76.
Silencing of FGL1 [SID134312840] came out at: CDH1-null / parental viability ratio 0.99; CDH1-null viability vs mock 0.81.
Silencing of GLUL [SID152156116] came out at: CDH1-null / parental viability ratio 1.03; CDH1-null viability vs mock 1.
Against PENK [SID152152108], the values are CDH1-null / parental viability ratio 1.17; CDH1-null viability vs mock 0.75.
Silencing of ZMYND15 [SID134318915] came out at: CDH1-null / parental viability ratio 1.11; CDH1-null viability vs mock 0.81.
COL8A2 [SID152148909] showed CDH1-null / parental viability ratio 1.18; CDH1-null viability vs mock 0.73.
ZNF324B [SID134329551] gave CDH1-null / parental viability ratio 1; CDH1-null viability vs mock 0.42.

2 successive entries already listed:
ZMYND15 [SID134318915] — CDH1-null / parental viability ratio = 1.11; CDH1-null viability vs mock = 0.81
COL8A2 [SID152148909] — CDH1-null / parental viability ratio = 1.18; CDH1-null viability vs mock = 0.73
